Experimental data as given in patent US20200299370A1 (UNIVERSITY OF FLORIDA RESEARCH FOUNDATION, published 2020).
Positions count from the first letter of the chain named. These are yes or no findings as the source states them, for the method shown. Some binding calls cover weakened binding; strength is not graded here.

Sequences of proteins named here, by UniProt entry; tags and fusion partners are left off. A change or cut given only in a name is not applied to a line headed by its entry. A line that says so, or that is headed by a name, gives the form on record, which may keep a tag or linker.
endogenous mouse tau (P10637, form named): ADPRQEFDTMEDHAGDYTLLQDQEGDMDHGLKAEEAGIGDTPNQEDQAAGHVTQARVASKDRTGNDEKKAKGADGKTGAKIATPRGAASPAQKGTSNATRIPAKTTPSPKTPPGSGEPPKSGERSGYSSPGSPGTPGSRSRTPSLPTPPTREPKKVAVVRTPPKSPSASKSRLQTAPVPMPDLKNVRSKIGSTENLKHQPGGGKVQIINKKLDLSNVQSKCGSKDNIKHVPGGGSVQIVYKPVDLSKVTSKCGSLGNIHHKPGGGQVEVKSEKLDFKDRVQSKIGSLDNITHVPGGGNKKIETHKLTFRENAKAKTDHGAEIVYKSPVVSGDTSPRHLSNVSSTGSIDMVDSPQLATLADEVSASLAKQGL
sarkosyl-insoluble tau from the temporal cortex of human AD cases (P10636, form named): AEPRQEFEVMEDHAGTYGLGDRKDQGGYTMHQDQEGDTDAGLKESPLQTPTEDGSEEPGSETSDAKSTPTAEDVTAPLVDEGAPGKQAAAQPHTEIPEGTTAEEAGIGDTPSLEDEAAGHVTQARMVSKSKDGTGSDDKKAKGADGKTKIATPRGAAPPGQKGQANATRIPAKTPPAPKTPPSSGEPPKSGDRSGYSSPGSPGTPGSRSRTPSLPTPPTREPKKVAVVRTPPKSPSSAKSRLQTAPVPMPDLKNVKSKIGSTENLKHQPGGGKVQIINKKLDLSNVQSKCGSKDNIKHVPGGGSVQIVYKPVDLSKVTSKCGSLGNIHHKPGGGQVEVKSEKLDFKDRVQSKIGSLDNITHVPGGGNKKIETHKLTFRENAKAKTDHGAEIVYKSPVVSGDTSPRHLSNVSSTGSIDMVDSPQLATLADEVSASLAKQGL

B1: 6G12 (antibody, V domains shown)
VH: EVNLEESGGGLVQPGGSMKLSCVASGFTFSDYWMNWVRQSPEKGLEWVAEIRLKSDNFATHYAESVKGRFTISRDDSKSSVYLQTNNLRAEDTGIYYCTLMRGDYGAEFAYWGQGTLAIVSA
VL: DIVMSQSPSSLAVSVGEKVTLTCKSSRSLLYRGNQENFLAWYQQKPGQSPKLLIYWASTRESGVPDRFTGSGSGTDFTLTINSVKAEDLAVYYCQQYYTYPYTFGGGTKLEIKR
B2: 10G12 (antibody, V domains shown)
VH: EVKLEESGGGLVQPGGSMKLSCVASGFTFSNYWMNWVRQSPETGLEWVAEIRLKSYNYATHYAESVTGRFTISRDDSKNRVYLQMNNLGPDDTGIYYCTTGGAYHPFDYWGQGTTLTVSS
VL: B1 VL with L21M, R27Q, G33N, E36K, F38Y, N82S
notes: also called 10G2
B3: 7F2 (antibody, V domains shown)
VH: B2 VH with E1Q, K3Q, E5Q, E6Q, G9A, G10E
VL: EIVLTQSIPSLTVSAGERVTINCKSNQNLLWSGNQRYCLVWHQWKPGQTPTPLITWTSDRYSGVPDRFIGGGSVTDFTLTISSVQAEDVALYFCQHHLHIPPWTFGGGTKLEIKR
notes: also called clone 7F2
B4: PHF2 (antibody, V domains shown)
VH: EVQLVESGGGSVKPGGSLKLSCAASGFTFSSYAMSWVRQTPEKRLEWVASITRGGSYTYFPDSVKGRFTISRDNTKDTLYLQMSSLRSEDTAMYYCTRQGNYDGAWCDYWGQGTLVTVSA
VL: DILLTQSPAILSVSPGERVSFSCRASQNIGTSIHWYQQRTNGSPRLLIKYTSESISGIPSRFGGSGSGTDFTLSVNGVESEDVADYYCQQTKTWPTTFGAGTKLELKR
B5: PHF15 (antibody, V domains shown)
VH: B4 VH with M34L, R53S, T75A, D77N, Q99P, D108A, A120S
VL: DILLTQSPAILSVSPGERDSFSCRASQNIGTSIHWYQQRTNGSPRLLIKYASESISGIPSRFSGSGSGTDFTLSVNSVESEDVADYYCQQTKTWPTTFGAGTKLDLK
B6: 2D1 (antibody, V domains shown)
VH: EVKLVESGGGLVQPGGSLRLSCATSGFTFTDFSMNWVRQPPGKALEWLGCVRDRAEGYTTEYSASVQGRFTISRDNSQSILYLQMNTLRPEDSATYYCARERAFAYWGQGTLVTVSA
VL: DIVMSQSPSSLAVSAGEKVTMSCKSSQSLLYSRNQKNYLAWYQQRPGQSPKLLIYWASSRESGVSDRFTGSGSGTDFTLTISSVKADDLAVYYCQQYYKSPLTFGAGTKLELKR
notes: also called clone 2D1

biological target: endogenous mouse tau (mouse) (UniProt P10637); assay: immunoblot, total mouse brain lysates

| binding | Binder |
| --- | --- |
| binds | B1 |
| binds | B2 |
| binds | B3 |
| binds | B4 |
| binds | B5 |
| binds | B6 |

biological target: tau in NFTs / tau pathology of human AD brain tissue (human) (UniProt P10636); assay: immunohistochemistry, human AD brain tissue

| binding | Binder |
| --- | --- |
| binds | B1 |
| binds | B2 |
| binds | B3 |
| binds | B6 |

biological target: sarkosyl-insoluble tau from the temporal cortex of human AD cases (human) (UniProt P10636); assay: immunoblot, sarkosyl-insoluble fraction of human temporal cortex

| binding | Binder |
| --- | --- |
| binds | B1 |
| binds | B2 |
| binds | B3 |
| binds | B6 |

biological target: sarkosyl-insoluble tau from the temporal cortex of human AD cases (human) (UniProt P10636); assay: immunoblot, sarkosyl-insoluble fraction of human temporal cortex; the lower-detection group

| binding | Binder |
| --- | --- |
| binds | B6 |
